In article PMC10644093:
These are yes or no findings as the source states them, for the method shown. Binding seen in cells or lysates may run through a third protein.

Amino acid sequences for entries named in this document (tags omitted). Residues count along the entry.
UniProt P9WGT7, residues 23-370: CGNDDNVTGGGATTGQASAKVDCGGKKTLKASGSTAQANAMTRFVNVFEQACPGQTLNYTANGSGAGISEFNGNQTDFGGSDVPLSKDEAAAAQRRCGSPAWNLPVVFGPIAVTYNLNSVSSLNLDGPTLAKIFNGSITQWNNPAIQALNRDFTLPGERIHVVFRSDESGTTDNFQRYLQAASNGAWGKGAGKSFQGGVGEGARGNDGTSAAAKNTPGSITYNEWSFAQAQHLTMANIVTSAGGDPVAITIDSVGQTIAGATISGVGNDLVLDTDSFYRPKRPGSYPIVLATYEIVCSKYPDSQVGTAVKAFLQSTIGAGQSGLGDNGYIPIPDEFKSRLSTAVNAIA
UniProt P21796: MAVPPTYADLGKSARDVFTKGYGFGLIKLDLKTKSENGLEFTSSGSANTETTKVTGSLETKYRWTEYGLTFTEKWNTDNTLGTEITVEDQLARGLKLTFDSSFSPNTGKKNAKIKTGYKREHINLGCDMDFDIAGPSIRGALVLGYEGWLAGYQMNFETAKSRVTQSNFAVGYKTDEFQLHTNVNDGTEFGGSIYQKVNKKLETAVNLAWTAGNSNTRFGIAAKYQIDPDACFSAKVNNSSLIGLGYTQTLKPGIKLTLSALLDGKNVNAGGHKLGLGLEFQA

Target: HA-tagged Mycobacterium tuberculosis Rv0928 protein (pHA-Rv0928) (Mycobacterium tuberculosis H37Rv) (UniProt P9WGT7)
Assay: co-IP

## voltage-dependent anion channel 1 (VDAC1) (from UniProt P21796 1-283)
  binding: no binding
